No constants are given. Whether binding was seen depends on the method and setting. Binding seen in cells or lysates may run through a third protein. Some results given as binding are weak or reduced against the parent protein; the word gives no strength. For some assays here: Where a sequence is shown, tags or fusion partners need not be part of it. Each block holds one molecule with its values, some of them ahead of it.
Legend:
[1] = molecular target: T1, BAK1 (endogenous) (Arabidopsis (endogenous in wild-type seedlings)) (UniProt Q94F62); experiment: co-IP; wild-type Arabidopsis seedlings treated with glucose; anti-BAK1 antibody and Protein G Magnetic Beads; immunoblot with anti-BAK1 and anti-BRI1 (native antibodies)
T1 sequence: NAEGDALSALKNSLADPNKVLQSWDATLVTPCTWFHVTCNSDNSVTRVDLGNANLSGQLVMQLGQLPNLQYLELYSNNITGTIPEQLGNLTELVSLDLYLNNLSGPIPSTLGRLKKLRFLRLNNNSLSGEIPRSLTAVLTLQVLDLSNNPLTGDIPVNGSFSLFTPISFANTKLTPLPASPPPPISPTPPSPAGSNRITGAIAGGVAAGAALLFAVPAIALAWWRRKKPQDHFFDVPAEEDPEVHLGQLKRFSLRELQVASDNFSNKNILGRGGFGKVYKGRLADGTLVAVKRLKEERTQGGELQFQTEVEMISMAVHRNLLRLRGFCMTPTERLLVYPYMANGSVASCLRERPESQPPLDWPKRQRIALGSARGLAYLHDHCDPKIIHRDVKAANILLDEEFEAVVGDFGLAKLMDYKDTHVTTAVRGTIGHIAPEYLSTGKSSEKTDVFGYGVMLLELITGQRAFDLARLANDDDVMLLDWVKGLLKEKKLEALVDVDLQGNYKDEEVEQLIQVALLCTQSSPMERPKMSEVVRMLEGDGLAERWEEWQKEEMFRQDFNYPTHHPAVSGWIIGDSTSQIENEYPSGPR

By UniProt entry, the sequences of proteins in these tests, tags left out. Residues count along the entry.
UniProt O22476, residues 24-1196: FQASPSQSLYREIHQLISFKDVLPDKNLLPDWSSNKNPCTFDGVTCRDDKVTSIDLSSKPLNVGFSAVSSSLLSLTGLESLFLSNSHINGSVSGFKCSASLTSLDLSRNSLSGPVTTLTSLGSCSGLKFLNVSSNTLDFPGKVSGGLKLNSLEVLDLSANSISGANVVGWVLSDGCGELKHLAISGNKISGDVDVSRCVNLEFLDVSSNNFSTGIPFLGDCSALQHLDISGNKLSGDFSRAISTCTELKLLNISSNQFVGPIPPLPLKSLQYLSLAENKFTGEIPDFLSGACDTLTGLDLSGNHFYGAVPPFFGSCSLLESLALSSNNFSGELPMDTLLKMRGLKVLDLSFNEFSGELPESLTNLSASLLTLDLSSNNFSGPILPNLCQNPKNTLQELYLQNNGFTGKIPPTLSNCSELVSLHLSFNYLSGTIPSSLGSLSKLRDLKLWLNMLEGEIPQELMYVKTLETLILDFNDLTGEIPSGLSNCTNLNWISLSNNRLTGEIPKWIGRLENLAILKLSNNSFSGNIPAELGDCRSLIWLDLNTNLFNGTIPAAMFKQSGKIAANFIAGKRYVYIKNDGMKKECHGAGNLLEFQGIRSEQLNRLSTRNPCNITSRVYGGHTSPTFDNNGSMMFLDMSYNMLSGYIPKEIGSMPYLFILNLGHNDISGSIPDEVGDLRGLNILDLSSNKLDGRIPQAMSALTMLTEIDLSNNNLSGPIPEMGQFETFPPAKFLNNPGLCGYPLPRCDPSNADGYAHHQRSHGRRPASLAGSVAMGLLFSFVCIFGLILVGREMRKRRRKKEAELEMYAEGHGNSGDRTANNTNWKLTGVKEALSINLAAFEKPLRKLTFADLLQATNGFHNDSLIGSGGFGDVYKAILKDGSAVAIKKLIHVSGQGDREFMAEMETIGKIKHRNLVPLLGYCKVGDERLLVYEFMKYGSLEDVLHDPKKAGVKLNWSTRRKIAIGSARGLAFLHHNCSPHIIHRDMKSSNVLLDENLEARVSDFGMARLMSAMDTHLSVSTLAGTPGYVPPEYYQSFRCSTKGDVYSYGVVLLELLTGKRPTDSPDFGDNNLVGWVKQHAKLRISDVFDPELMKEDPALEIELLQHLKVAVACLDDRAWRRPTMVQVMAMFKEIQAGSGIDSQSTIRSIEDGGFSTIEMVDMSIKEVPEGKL

BRI1-GFP (Arabidopsis) [2] = molecular target: BRI1-GFP (Arabidopsis) (UniProt O22476); experiment: co-IP; total proteins of transgenic Arabidopsis seedlings, GFP-Trap-A agarose beads; immunoblot with anti-GFP and anti-Myc or anti-HA; for BRI1-GFP with BAK1-HA seedlings treated with 0-6% glucose or mannitol for 4 or 24 h; for BRI1 with AGB1 also 2% glucose
GFP-AGG3 (Arabidopsis) = molecular target: T2, GFP-AGG3 (Arabidopsis) (UniProt Q6AWT8); experiment: as above
T2 sequence: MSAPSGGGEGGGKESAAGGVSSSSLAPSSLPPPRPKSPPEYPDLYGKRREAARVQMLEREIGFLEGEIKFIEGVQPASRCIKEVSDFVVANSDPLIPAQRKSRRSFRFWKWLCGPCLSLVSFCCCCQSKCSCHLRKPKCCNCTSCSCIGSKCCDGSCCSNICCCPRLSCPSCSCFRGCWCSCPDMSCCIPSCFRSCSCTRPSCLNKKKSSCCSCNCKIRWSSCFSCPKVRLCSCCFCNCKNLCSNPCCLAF

BRI1-GFP (Arabidopsis) [3] = molecular target: BRI1-GFP (Arabidopsis) (UniProt O22476); experiment: co-IP; BRI1 and BAK1 interactions induced by low glucose, after extended BRZ (Brassinazole) treatment (Supplementary Fig. 21b); set-up not shown
BRI1-nYFP (Arabidopsis) = BRI1-nYFP (Arabidopsis) (UniProt O22476); experiment: split reporter; BiFC; nYFP and cYFP fusions coexpressed in leaves of N. benthamiana by Agrobacterium GV3101; YFP fluorescence observed after 72 h
[4] = molecular target: T3, AGB1-Myc (Arabidopsis), P49177; experiment: co-IP; wild type, bri1-301 and bak1-4 Arabidopsis leaf protoplasts co-transformed with 35S:AGB1-Myc and 35S:GPA1-HA, dark 14 h, without or with 2% glucose for 5 h; anti-Myc-Tag mAb agarose beads; immunoblot with anti-Myc and anti-HA; conditions: remark: other sources report otherwise
T3 chain: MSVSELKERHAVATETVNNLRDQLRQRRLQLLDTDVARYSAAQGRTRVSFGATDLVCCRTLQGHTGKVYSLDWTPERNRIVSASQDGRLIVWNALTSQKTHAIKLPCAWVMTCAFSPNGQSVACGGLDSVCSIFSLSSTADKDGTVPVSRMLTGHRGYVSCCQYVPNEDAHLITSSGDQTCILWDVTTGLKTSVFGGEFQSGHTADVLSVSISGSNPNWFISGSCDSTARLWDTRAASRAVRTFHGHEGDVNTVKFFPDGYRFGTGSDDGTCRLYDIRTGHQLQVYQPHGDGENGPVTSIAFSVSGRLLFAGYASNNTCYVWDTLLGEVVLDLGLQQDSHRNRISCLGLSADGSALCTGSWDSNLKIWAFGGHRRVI

Molecule: BRI1 (endogenous) (from UniProt O22476 24-1196) (receptor)
- binding [1]: binds

B3: Myc-AGB1 (protein, UniProt P49177 1-377)
chain: T3 chain
- binding (BRI1-GFP (Arabidopsis) [2]): binds

B7: Myc-AGG3 (protein, UniProt Q6AWT8 1-251)
chain: T2 sequence
- binding (BRI1-GFP (Arabidopsis) [2]): binds

B9: MBP-AGG1 (natural protein, Arabidopsis, UniProt Q9FDX9 1-98, looked up)
chain: MREETVVYEQEESVSHGGGKHRILAELARVEQEVAFLEKELKEVENTDIVSTVCEELLSVIEKGPDPLLPLTNGPLNLGWDRWFEGPNGGEGCRCLIL
notes: AGG1, Arabidopsis G protein gamma subunit 1; also called G protein gamma subunit; source: E. coli (pMAL-c2); not shown: MBP, N-terminal, kept
- binding (BRI1-nYFP (Arabidopsis)): binds

B10: RGS1-cYFP (protein, UniProt Q8H1F2 1-459)
chain: MASGCALHGGCPSDYVAVAISVICFFVLLSRSVLPCLIHKAPRTNSSSFWIPVIQVISSFNLLFSIMMSVNLLRFRTKHWWRYCYLWAVWIEGPLGFGLLMSCRITQAFQLYFIFVKKRLPPVKSYIFLPLVLLPWIFGAAIIHATKPLNDKCHMGLQWTFPVAGLHALYVLALIAFTRAVRHVEFRFDELRDLWKGILVSATSIVIWVTAFVLNEIHEEISWLQVASRFVLLVTGGILVVVFFSISSNQPLLSQISLKKRQNFEFQRMGQALGIPDSGLLFRKEEFRPVDPNEPLDKLLLNKRFRHSFMEFADSCYAGETLHFFEEVYEHGKIPEDDSIRRIYMARHIMEKFIVAGAEMELNLSHKTRQEILTTQDLTHTDLFKNALNEVMQLIKMNLVRDYWSSIYFIKFKEEESCHEAMHKEGYSFSSPRLSSVQGSDDPFYQEHMSKSSRCSSPG
- binding (BRI1-nYFP (Arabidopsis)): binds

B11: Myc-RGS1 (protein, UniProt Q8H1F2 1-459)
chain: B10 chain
- binding (BRI1-GFP (Arabidopsis) [2]): binds

Continued, values first:

- binding (BRI1-GFP (Arabidopsis) [2]): binds
- binding (GFP-AGG3 (Arabidopsis)): binds
- binding (BRI1-GFP (Arabidopsis) [3]): binds weakly
B1: BAK1-HA (receptor, UniProt Q94F62 26-615)
chain: T1 sequence

- binding (BRI1-nYFP (Arabidopsis)): binds
B2: AGB1-cYFP (protein, UniProt P49177 1-377)
chain: T3 chain

- binding [4]: binds
B4: GPA1-HA, P18064 1-383 (protein)
chain: MGLLCSRSRHHTEDTDENTQAAEIERRIEQEAKAEKHIRKLLLLGAGESGKSTIFKQIKLLFQTGFDEGELKSYVPVIHANVYQTIKLLHDGTKEFAQNETDSAKYMLSSESIAIGEKLSEIGGRLDYPRLTKDIAEGIETLWKDPAIQETCARGNELQVPDCTKYLMENLKRLSDINYIPTKEDVLYARVRTTGVVEIQFSPVGENKKSGEVYRLFDVGGQRNERRKWIHLFEGVTAVIFCAAISEYDQTLFEDEQKNRMMETKELFDWVLKQPCFEKTSFMLFLNKFDIFEKKVLDVPLNVCEWFRDYQPVSSGKQEIEHAYEFVKKKFEELYYQNTAPDRVDRVFKIYRTTALDQKLVKKTFKLVDETLRRRNLLEAGLL

- binding (BRI1-nYFP (Arabidopsis)): no binding
B5: GPA1-cYFP (protein, UniProt P18064 1-383)
chain: B4 chain

- binding (BRI1-nYFP (Arabidopsis)): binds
B6: AGG3-cYFP (protein, UniProt Q6AWT8 1-251)
chain: T2 sequence

- binding (BRI1-nYFP (Arabidopsis)): binds
B8: MBP-AGG2 (natural protein, Arabidopsis, UniProt Q93V47 1-100, looked up)
chain: MEAGSSNSSGQLSGRVVDTRGKHRIQAELKRLEQEARFLEEELEQLEKMDNASASCKEFLDSVDSKPDPLLPETTGPVNATWDQWFEGPKEAKRCGCSIL
notes: AGG2, Arabidopsis G protein gamma subunit 2; also called G protein gamma subunit; source: E. coli (pMAL-c2); not shown: MBP, N-terminal, kept
